Results from the supplement of paper PMC5949888.
Most values lie at the floor of the assay. Slopes are relative: functional sequences can read slightly below zero.

tested on: Saccharomyces cerevisiae PS128 hsf1 delta, HSF1(1-493) fusion; test: growth estimate (transactivation domain function in HSF1 fusion, heat-shock survival) (a.u. (slope of normalised read count over time)); higher = stronger growth at 37°C, i.e. more transactivation activity; details: library: random library
Protocol: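 Random 60-nt DNA library encoding peptides of up to 20 aa, fused to the C-terminus of yeast HSF1 residues 1-493 (C-terminal TAD deleted) and expressed from the native HSF1 promoter on a CEN plasmid in hsf1-deleted S. cerevisiae PS128. Cells were selected at 37°C on -trp 5-FOA plates for 0, 2, 4, 6 and 8 days and amplicons were sequenced. Growth estimate is the slope of a robust linear fit of total-sum-normalised read counts (normalised to the first time point) over time, using at least 2 replicates. Sequences are classed functional (TAD activity) above a threshold of -0.13, set from stop-codon control sequences.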

Row | Substance | growth estimate
1 | DTPALTRLELPSATGNVSNG | < -0.25
2 | DTRQLGASCDTAFGSISVKL | < -0.25
3 | DTSLNSAGRGGT | < -0.25
4 | DTSLSQIYSAGRD | < -0.25
5 | DTSYPDWSRRR | < -0.25
6 | DTTGEPVSSRRTFWWGRGRP | < -0.25
7 | DTTGVYKIQTWHCRSLGRTR | < -0.25
8 | DTTIKARCSWIGTRCYMQSR | < -0.25
9 | DTVVCYEVVRTLGRGLSETT | 0.899
10 | DVAFDSSGKRSPLNS | < -0.25
11 | DVFSTIYQFRGVPNVGKVHW | < -0.25
12 | DVGGLLRRRRAGDSLSRGGW | < -0.25
13 | DVGLDLVNVNVQVL | < -0.25
14 | DVGLPGMKR | < -0.25
15 | DVGQFSSLLGCRGGISVSSG | < -0.25
16 | DVIRPFLRYFRRGEARSTPC | < -0.25
17 | DVKAVICVYEAIDDLSCSGA | -0.239
18 | DVKVHGYNHVCNHPGRVLAR | < -0.25
19 | DVLSIGVYMVCWFAALVDTH | < -0.25
20 | DVRACYVLRELSFEALVPRL | < -0.25
21 | DVRDTGYPTRSVCVGL | < -0.25
22 | DVREGKGVTNRA | < -0.25
23 | DVSFCGVDGGQG | < -0.25
24 | DVSLFSALRECDCWMLSPRS | < -0.25

A few values from the results shown:
growth estimate with DTSYPDWSRRR is entered as < -0.25
growth estimate with DVGLDLVNVNVQVL is entered as < -0.25
growth estimate with DTVVCYEVVRTLGRGLSETT is entered as 0.899
growth estimate with DVKVHGYNHVCNHPGRVLAR is entered as < -0.25
growth estimate with DTRQLGASCDTAFGSISVKL is entered as < -0.25
growth estimate with DVGQFSSLLGCRGGISVSSG is entered as < -0.25

More records follow:

Row | Substance | growth estimate
25 | DVSRSKIAPLADICSRGSWL | < -0.25
26 | DVTGKYRSWHRIIRHMSRWG | < -0.25
27 | DVTSPC | < -0.25
28 | DVWLAERPVARRHRGTEPGL | < -0.25
29 | DWDRPWRVARRPITPRILGT | < -0.25
30 | DWGAIY | < -0.25
31 | DWNERIGYIRLLNFPRPSLS | < -0.25
32 | DWRSTQPHGILLSANSDPCP | < -0.25
33 | DYCVASALRGGKRGGQISVL | < -0.25
34 | DYL | < -0.25
35 | DYPATAPLANQ | < -0.25
36 | EADGI | < -0.25
37 | EADNRHETRHRSARFGPDAV | < -0.25
38 | EAFLELN | < -0.25
39 | EAGPTSQQGLLGR | < -0.25
40 | EALPSAQ | < -0.25
41 | EAQTPRFPGTKWGVFC | -0.248
42 | EARSPSGDGRALCRRE | < -0.25
43 | EASVSIMAPQNGVWILVPDG | < -0.25
44 | EAVIPGGAFLHRHPFWTSLR | < -0.25
45 | EAVRPTKDLM | < -0.25
46 | EAVSPVWIVVRRGFVCTRIH | < -0.25
47 | EAYHLRPRRKYFAGLTSGAG | < -0.25
48 | EAYLNARLDVRRVT | < -0.25

Row | Substance | growth estimate
49 | ECAPDYAEEGDLALSPEAHS | < -0.25
50 | ECDNILKIW | < -0.25
51 | ECGDGTSYVR | < -0.25
52 | ECGDQCIHFCISKGRLEVFG | < -0.25
53 | ECGLVASPERVLAGCSNHV | < -0.25
54 | ECHSINRGSVD | < -0.25
55 | ECI | < -0.25
56 | ECSVSTTLSS | < -0.25
57 | ECTLS | < -0.25
58 | ECYSTTKVQRHVTRRPRIST | -0.241
59 | EDAIFVTTLNLTFSGIDPCN | < -0.25
60 | EDHPLLSIRMGVVIPLSSNR | < -0.25
61 | EDITDAGVSL | < -0.25
62 | EDLGFRLV | < -0.25
63 | EDLHFTPMACNTSLIRES | < -0.25
64 | EDLLAHDIRSVKGTRLGSKC | < -0.25
65 | EDNCYKSLVADERGPNVGVP | < -0.25
66 | EDRGEHTWNTSRCTWVTWEI | < -0.25
67 | EDSELRMHSAPNHSIPGAFS | < -0.25
68 | EDSGDIVGISLKSLKGPDLY | < -0.25
69 | EDYCRRNTCSSDTSWH | -0.246
70 | EDYYVRI | < -0.25
71 | EEAVHRPSLSLSPSP | < -0.25
72 | EEDRFTLNVAQMDANPSVWR | < -0.25

Row | Substance | growth estimate
73 | EEIGSEFRTFGQWLLISQQI | < -0.25
74 | EEKTEMTYGIGGTARIPKCG | < -0.25
75 | EELPHSPVKLQGRRLI | < -0.25
76 | EEMERVNR | < -0.25
77 | EEPMHSNPAVIKSRGDVRAS | < -0.25
78 | EERGRL | < -0.25
79 | EERIRPSTVVGRIYETL | < -0.25
80 | EERPLCLGTRVGFPSQ | < -0.25
81 | EESESKRLTAPIFRPSNH | < -0.25
82 | EEVEAMPEDYGDKPTV | < -0.25
83 | EEVIVSQGCRDPALIQRHEG | < -0.25
84 | EEWGVGQGPFRNRHAALGLW | < -0.25
85 | EFASVRIGIVHAL | < -0.25
86 | EFSMES | < -0.25
87 | EGAEGCCHGVETYTANHCLR | < -0.25
88 | EGAISSYRALHWQ | < -0.25
89 | EGDLRQWSKCPEWDDQPVGG | < -0.25
90 | EGDNGARVYY | < -0.25
91 | EGDVVSKLSSPNTKLFFHAV | < -0.25
92 | EGERAPACI | < -0.25
93 | EGERRS | < -0.25
94 | EGFT | < -0.25
95 | EGGCWMLALSTQYDDVIFTL | < -0.25
96 | EGGFLRVQLLQVVTVRAASS | < -0.25

Row | Substance | growth estimate
97 | EGGQIP | < -0.25
98 | EGL | < -0.25
99 | EGQDYCSTAGTCI | -0.245
100 | EGQFSFYRGGLVTA | < -0.25
101 | EGQHSISYQCERLKDWVPDK | < -0.25
102 | EGRESVAHEVGWDVYCW | < -0.25
103 | EGRFKGCKGKWLFRSR | < -0.25
104 | EGRTRFGTLSECWP | < -0.25
105 | EGS | < -0.25
106 | EGSRESMISPRLARIPRTYW | < -0.25
107 | EGSRLAFGAEAGGNVAEQRM | < -0.25
108 | EGTLLAVPNTMCLLLMEVEL | < -0.25
109 | EGTNLRNLGRRRLCAVLRRC | < -0.25
110 | EGTS | < -0.25
111 | EGVETHQPGPITDVVLFRVR | < -0.25
112 | EHALCSLSNRLREWATQVAS | < -0.25
113 | EHALFVD | < -0.25
114 | EHATKTREEPCIWGCLRHGM | < -0.25
115 | EHEFGRSTSYHIPRQAPPER | < -0.25
116 | EHGEDQESGIHNT | < -0.25
117 | EHLRVTYMHFGFMSTCQLPN | < -0.25
118 | EHPVSGLTNGDVSRQSEMRC | < -0.25
119 | EIAKYKRISRTPRAAFGRGS | < -0.25
120 | EIAVFSMSYLLRLTGYFRGY | < -0.25

Row | Substance | growth estimate
121 | EICQSTGGGSVRARLVSSRV | < -0.25
122 | EIGAHHHGVFRTRLPPSAYA | < -0.25
123 | EIGYSLPVTAVTILS | < -0.25
124 | EIIDSVYVNCSCQFPGRTAY | < -0.25
125 | EIIVGIVRPVEATSFRHRDA | < -0.25
126 | EINVKG | < -0.25
127 | EIQTPGNPAKGDRGNRLPGW | < -0.25
128 | EIRITYYAQRYLRVCHGKAN | < -0.25
129 | EITGS | < -0.25
130 | EIVVQFSAR | < -0.25
131 | EIYQTRWLRELVGSTVRFSR | < -0.25
132 | EIYTAQNVSLCALRHRMCEP | < -0.25
133 | EKDPLQGLLRLANWPGPGSS | < -0.25
134 | EKGHGNVQDGARGGAYGQWR | < -0.25
135 | EKGL | < -0.25
136 | EKMASICCRG | < -0.25
137 | EKREPGLKKGWLVLDSRTVR | < -0.25
138 | EKSRVL | < -0.25
139 | EKVIRNRTQSAA | < -0.25
140 | ELAAVDVYTINGGNVGRPPL | < -0.25
141 | ELDQVRH | < -0.25
142 | ELGCCRRSSPRIYCARVVGF | < -0.25
143 | ELGD | < -0.25
144 | ELGSLFHTESLVLSDC | -0.0491

Row | Substance | growth estimate
145 | ELHYTMRIGGR | < -0.25
146 | ELIPASSSRWA | < -0.25
147 | ELITSRDTPIS | < -0.25
148 | ELIVWGLGKGRSCGNTTKTR | < -0.25
149 | ELKPPLLGGTRPRCYHKLGL | -0.246
150 | ELLIDIAIPKSLHVGPCIPR | < -0.25
151 | ELLTS | < -0.25
152 | ELLYRESDGDYKGG | < -0.25
153 | ELNND | < -0.25
154 | ELRGKADQPVSNAPACEENQ | < -0.25
155 | ELRGSMY | < -0.25
156 | ELRIYLPKIKR | < -0.25
157 | ELRNLAGSDKLRCVHTPVDA | < -0.25
158 | ELRPLDQTASLRGLRE | < -0.25
159 | ELSTLGRMSRFESGAIMTFD | < -0.25
160 | ELSVQAQRPAFDSSSGVTFA | < -0.25
161 | ELVCRLGPPRRGRRPG | < -0.25
162 | ELVIIRADPATLYVRDLPSR | < -0.25
163 | ELVS | < -0.25
164 | ELVTTSNVMRFQTVRRIGLS | < -0.25
165 | ELWDRSAT | < -0.25
166 | ELWGVQFPGFWNVGHARYLS | < -0.25
167 | ELWPFTGRSKVHQGGTRVAR | < -0.25
168 | ELYHGVALRPEGGRV | < -0.25

Row | Substance | growth estimate
169 | EMADLLWFRRPLMIDQPTVG | < -0.25
170 | EMDCGQDSQGLKSVSW | < -0.25
171 | EMKAISRGTPHHLGHG | < -0.25
172 | EMLSLEPIELHFVQA | < -0.25
173 | EMSDLATWC | < -0.25
174 | ENRFKYSFSKGVSAMACWID | < -0.25
175 | ENRHVDGGVDSTSHLLTRMA | < -0.25
176 | ENRPLG | < -0.25
177 | ENVPDDLPRLRLVLRKT | < -0.25
178 | ENYWGLA | < -0.25
179 | EPAIDGG | < -0.25
180 | EPALDGV | < -0.25
181 | EPCMFSRSELNIHPPQISRT | < -0.25
182 | EPF | < -0.253
183 | EPGSVVNTPPNESNSRTQPS | < -0.25
184 | EPQFATSYCPSVHRVFGEYP | < -0.25
185 | EPRACRRPVCGCNRLPS | < -0.25
186 | EPRKRPTV | < -0.25
187 | EPRLEG | < -0.25
188 | EPRPVLLGGIA | < -0.25
